# Experimental data as given in article PMC9120067.
# The exact form of at least one protein or probe is not confirmed. At least one verdict rests on a figure or table, not on a statement of the authors. Where a protein sequence is shown, tags need not be part of it.
# Biological target: T1, His6-ExpR (Sinorhizobium meliloti) (UniProt Q2HY11)
# T1 sequence (looked up, limits assumed): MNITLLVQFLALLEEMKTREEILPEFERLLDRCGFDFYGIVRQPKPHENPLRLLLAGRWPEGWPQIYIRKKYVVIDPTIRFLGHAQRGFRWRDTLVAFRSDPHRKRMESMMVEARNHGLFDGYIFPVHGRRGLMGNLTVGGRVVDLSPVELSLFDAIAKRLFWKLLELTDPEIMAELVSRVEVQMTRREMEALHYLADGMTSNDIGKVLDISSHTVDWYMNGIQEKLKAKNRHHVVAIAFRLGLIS
# Experiment: EMSA
# Settings: 1 uM His-ExpR, 10 uM 3-oxo-C16:1-HSL, shift implied by supershift with SinR, 20 mM HEPES-Na pH 7.5, 200 mM NaCl, 50 mM KCl, 20 mM MgCl2, 1 ug/ul BSA, 0.0025 U/ul sonicated sperm DNA, 0.1% DMSO, 2.75 nM DNA, recombinant protein, protein details: His6, label: Cy3 at 5' end of forward primer 264f, probe letters rebuilt from the primers and the genome
sequence,measurement,value
CGTGATTACGCGATGTAGCGATGCTGTCAGGCTCGGATGACACATGTAACTGTCTATAGTGACAGTTTATTTCCTCATTTTTTCCCAATAGATTTGTGGGGGAATCTGCGGGTGGCCGGTCCTGTCCCGGGCCGGCAACCCGTCAGATGGTGGGGATCAGAGCATGTCGAACAGCGT (double strand) [sinI promoter 177 bp fragment],binding result,binds
